Source: the supplement of paper PMC4604168 (melanoma cell lines)
Some of the results follow. Single values are uncertain, as repeats are few or missing.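 Cells were imaged in 1,536-well plates, and nuclei stained with an antibody against cleaved PARP were counted against all DNA-stained nuclei to give the apoptosis fraction. Screening doses were chosen to leave most cells alive, and resting and induced cleaved-PARP levels differ strongly between cell lines.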

What was measured:
Test in all cases: cleaved PARP positive nuclei fraction relative to DMSO control; melanoma cells; higher = more apoptosis
Settings in all cases: library dose: low library concentration; 72 h
CBRC034 = system: CBRC034 (line from a melanoma biopsy)
COLO792 = system: COLO792
COLO800 = system: COLO800
COLO829 = system: COLO829
G361 = system: G361
IPC-298 = system: IPC-298
IST-MEL1 = system: IST-MEL1
LB2518-MEL = system: LB2518-MEL
LOXIMVI = system: LOXIMVI
MEL-HO = system: MEL-HO

SMILES	cleaved PARP positive nuclei fraction (CBRC034) [%]	cleaved PARP positive nuclei fraction (COLO792) [%]	cleaved PARP positive nuclei fraction (COLO800) [%]	cleaved PARP positive nuclei fraction (COLO829) [%]	cleaved PARP positive nuclei fraction (G361) [%]	cleaved PARP positive nuclei fraction (IPC-298) [%]	cleaved PARP positive nuclei fraction (IST-MEL1) [%]	cleaved PARP positive nuclei fraction (LB2518-MEL) [%]	cleaved PARP positive nuclei fraction (LOXIMVI) [%]	cleaved PARP positive nuclei fraction (MEL-HO) [%]
Cn1cc(C2=C(c3cn(C4CCN(Cc5ccccn5)CC4)c4ccccc34)C(=O)NC2=O)c2ccccc21 [Enzastaurin] + Clc1ccc(Nc2nnc(Cc3ccncc3)c3ccccc23)cc1 [vatalanib] (first compound 0.8 µM, partner dose 2 µM)	77.9	87.6	145	148	85.9	106	131	171	41.2	116
CC(C)C[C@H](NC(=O)[C@H](Cc1ccccc1)NC(=O)c1cnccn1)B(O)O [Bortezomib] + C[As](C)SC[C@H](NC(=O)CC[C@H](N)C(=O)O)C(=O)NCC(=O)O [Darinaparsin] (first compound 0.001 µM, partner dose 0.4 µM)	326	108	196	268	1700	155	89.7	283	74	71.3
C[C@]12O[C@H](C[C@]1(O)CO)n1c3ccccc3c3c4c(c5c6ccccc6n2c5c31)CNC4=O [Lestaurtinib] + O=C(O)c1ccc2c(c1)nc(Nc1cccc(Cl)c1)c1ccncc12 [CX4945] (first compound 0.004 µM, partner dose 0.4 µM)	300	87.3	96.7	165	126	178	215	114	68.6	198
Nc1nc(F)nc2c1ncn2[C@@H]1O[C@H](CO)[C@@H](O)[C@@H]1O [fludarabine] + C[As](C)SC[C@H](NC(=O)CC[C@H](N)C(=O)O)C(=O)NCC(=O)O [Darinaparsin] (first compound 0.2 µM, partner dose 0.4 µM)	117	41.4	198	96.2	136	243	67.1	108	124	115
Cc1cn(-c2cc(NC(=O)c3ccc(C)c(Nc4nccc(-c5cccnc5)n4)c3)cc(C(F)(F)F)c2)cn1 [nilotinib] + Cn1cc(C2=C(c3cn(C4CCN(Cc5ccccn5)CC4)c4ccccc34)C(=O)NC2=O)c2ccccc21 [Enzastaurin] (first compound 0.2 µM, partner dose 0.8 µM)	69.4	53.2	110	158	89	179	248	107	237	100
N#CC[C@H](C1CCCC1)n1cc(-c2ncnc3[nH]ccc23)cn1 [ruxolitinib] + C[As](C)SC[C@H](NC(=O)CC[C@H](N)C(=O)O)C(=O)NCC(=O)O [Darinaparsin] (first compound 1 µM, partner dose 0.4 µM)	109	47.9	71	65.2	115	39.5	31.7	103	73.8	151
C[C@@H](N)c1ccc(C(=O)Nc2ccnc3[nH]ccc23)cc1 + C[C@]12O[C@H](C[C@]1(O)CO)n1c3ccccc3c3c4c(c5c6ccccc6n2c5c31)CNC4=O [Lestaurtinib] (first compound 0.4 µM, partner dose 0.004 µM)	269	127	92.5	122	185	44.5	175	42.9	121	93.4
N.N.[Cl][Pt][Cl] [cisplatin] + COc1ccc(Cl)c(Nc2nc3ccccc3nc2NS(=O)(=O)c2cccc(NC(=O)C(C)(C)N)c2)c1 [XL147] (first compound 1.6 µM, partner dose 0.8 µM)	58.5	57.3	104	135	194	82.8	50.5	105	76.8	67.8
O=C(O)[C@@H]1[O][Sb](=[O])([O][Sb]2(=[O])[O][C@H]([C@H](O)CO)[C@H](O)[C@H](C(=O)O)[O]2)[O][C@H]([C@H](O)CO)[C@@H]1O (stereo not given in full) [stibogluconate] + C[As](C)SC[C@H](NC(=O)CC[C@H](N)C(=O)O)C(=O)NCC(=O)O [Darinaparsin] (first compound 2 µM, partner dose 0.4 µM)	143	79.1	111	210	71	79.1	77.9	183	143	124
CCCCCCCCCCCCCCCCCCOP(=O)([O-])OC1CC[N+](C)(C)CC1 [Perifosine] + C[C@]12O[C@H](C[C@]1(O)CO)n1c3ccccc3c3c4c(c5c6ccccc6n2c5c31)CNC4=O [Lestaurtinib] (first compound 0.4 µM, partner dose 0.004 µM)	102	96	77.9	54.8	135	177	45.3	228	104	164
